# Measurements taken from PubChem BioAssay (EPA / NIEHS).
# Sequences of proteins named here, by UniProt entry; tags and fusion partners are left off. A change or cut given only in a name is not applied to a line headed by its entry.
# UniProt P10276, whole entry, looked up: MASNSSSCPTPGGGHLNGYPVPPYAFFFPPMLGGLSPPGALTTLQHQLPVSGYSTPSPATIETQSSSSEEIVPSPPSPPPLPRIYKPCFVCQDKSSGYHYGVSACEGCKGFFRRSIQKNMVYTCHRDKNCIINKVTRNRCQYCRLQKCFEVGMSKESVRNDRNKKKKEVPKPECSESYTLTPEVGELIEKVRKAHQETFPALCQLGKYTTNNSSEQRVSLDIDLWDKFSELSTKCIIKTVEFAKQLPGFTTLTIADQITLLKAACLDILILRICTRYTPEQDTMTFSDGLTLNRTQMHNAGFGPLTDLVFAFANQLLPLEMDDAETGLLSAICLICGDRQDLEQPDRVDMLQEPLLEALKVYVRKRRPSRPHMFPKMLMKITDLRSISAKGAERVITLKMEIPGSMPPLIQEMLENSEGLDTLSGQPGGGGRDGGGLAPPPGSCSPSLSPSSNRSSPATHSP
# UniProt P13631, whole entry, looked up: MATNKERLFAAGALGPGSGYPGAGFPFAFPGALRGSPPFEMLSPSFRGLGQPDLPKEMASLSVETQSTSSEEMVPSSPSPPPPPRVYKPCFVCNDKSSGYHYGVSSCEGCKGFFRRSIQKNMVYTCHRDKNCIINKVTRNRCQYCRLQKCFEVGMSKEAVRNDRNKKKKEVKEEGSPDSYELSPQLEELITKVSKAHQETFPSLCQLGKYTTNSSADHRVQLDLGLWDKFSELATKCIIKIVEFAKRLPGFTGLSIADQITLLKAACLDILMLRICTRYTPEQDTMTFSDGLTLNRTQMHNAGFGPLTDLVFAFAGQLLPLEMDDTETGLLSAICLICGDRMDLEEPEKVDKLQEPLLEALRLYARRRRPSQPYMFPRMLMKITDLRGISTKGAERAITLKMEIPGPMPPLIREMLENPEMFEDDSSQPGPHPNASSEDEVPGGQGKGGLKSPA
# UniProt Q92753: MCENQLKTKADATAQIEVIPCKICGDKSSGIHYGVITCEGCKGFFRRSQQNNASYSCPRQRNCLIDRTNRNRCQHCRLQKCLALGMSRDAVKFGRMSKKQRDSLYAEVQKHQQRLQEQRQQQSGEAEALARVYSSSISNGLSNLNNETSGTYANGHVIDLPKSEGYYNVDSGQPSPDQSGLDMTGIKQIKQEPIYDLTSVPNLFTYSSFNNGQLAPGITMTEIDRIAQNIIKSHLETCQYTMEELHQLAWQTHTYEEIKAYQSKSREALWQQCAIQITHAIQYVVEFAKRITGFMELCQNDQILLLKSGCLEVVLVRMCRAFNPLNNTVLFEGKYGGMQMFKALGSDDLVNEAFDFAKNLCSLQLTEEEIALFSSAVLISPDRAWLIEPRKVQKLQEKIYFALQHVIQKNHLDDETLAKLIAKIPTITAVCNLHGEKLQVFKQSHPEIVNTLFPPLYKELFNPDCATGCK
# UniProt P51449: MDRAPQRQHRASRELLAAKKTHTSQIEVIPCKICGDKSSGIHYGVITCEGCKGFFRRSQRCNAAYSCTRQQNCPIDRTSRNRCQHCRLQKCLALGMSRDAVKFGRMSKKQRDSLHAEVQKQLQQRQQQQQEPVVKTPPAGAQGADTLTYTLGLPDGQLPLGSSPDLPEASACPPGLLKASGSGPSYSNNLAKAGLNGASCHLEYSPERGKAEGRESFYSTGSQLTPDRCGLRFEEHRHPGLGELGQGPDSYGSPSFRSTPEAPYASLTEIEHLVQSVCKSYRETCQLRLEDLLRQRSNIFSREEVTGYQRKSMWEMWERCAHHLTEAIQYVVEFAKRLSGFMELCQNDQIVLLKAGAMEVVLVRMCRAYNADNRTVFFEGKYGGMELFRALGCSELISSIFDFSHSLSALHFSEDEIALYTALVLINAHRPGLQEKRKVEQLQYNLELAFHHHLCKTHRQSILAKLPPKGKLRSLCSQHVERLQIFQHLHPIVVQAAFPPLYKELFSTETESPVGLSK
# UniProt P28702: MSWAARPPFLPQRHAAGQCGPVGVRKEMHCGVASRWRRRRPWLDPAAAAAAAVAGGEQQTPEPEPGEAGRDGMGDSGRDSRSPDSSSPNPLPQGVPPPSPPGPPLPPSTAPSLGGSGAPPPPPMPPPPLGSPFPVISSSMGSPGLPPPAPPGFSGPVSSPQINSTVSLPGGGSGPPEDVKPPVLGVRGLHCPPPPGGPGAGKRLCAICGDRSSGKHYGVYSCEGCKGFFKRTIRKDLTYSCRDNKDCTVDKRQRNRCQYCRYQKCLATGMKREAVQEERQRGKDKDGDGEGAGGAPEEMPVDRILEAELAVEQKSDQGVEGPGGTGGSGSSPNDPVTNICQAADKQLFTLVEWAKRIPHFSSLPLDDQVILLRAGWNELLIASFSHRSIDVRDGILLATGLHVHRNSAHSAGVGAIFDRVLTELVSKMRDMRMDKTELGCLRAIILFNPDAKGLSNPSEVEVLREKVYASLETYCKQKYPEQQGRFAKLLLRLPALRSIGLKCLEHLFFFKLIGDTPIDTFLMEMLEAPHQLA
# UniProt P10827: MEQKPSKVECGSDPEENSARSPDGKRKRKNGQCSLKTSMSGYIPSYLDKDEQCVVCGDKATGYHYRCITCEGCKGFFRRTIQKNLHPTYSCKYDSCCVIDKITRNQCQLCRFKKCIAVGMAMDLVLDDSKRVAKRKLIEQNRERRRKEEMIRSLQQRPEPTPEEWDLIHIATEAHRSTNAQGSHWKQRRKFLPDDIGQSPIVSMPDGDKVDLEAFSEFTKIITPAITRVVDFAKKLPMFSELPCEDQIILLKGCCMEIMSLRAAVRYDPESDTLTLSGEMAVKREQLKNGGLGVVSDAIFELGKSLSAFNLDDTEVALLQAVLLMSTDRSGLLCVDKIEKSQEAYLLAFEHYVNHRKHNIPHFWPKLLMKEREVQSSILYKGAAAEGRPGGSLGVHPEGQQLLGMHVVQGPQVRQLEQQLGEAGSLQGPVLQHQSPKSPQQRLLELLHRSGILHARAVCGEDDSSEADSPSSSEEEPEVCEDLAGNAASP
# UniProt P11473: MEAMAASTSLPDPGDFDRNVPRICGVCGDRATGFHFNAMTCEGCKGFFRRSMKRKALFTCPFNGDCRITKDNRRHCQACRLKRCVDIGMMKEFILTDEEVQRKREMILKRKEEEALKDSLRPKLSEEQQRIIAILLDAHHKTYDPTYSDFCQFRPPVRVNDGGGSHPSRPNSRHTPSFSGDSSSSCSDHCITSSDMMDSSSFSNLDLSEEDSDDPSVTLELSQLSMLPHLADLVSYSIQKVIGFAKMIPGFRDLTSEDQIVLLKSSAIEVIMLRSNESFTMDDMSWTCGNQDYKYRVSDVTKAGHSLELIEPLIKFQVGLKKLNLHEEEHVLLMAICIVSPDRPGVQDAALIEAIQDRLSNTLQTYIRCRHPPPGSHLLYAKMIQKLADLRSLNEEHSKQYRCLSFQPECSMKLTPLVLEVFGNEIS
# UniProt P11509: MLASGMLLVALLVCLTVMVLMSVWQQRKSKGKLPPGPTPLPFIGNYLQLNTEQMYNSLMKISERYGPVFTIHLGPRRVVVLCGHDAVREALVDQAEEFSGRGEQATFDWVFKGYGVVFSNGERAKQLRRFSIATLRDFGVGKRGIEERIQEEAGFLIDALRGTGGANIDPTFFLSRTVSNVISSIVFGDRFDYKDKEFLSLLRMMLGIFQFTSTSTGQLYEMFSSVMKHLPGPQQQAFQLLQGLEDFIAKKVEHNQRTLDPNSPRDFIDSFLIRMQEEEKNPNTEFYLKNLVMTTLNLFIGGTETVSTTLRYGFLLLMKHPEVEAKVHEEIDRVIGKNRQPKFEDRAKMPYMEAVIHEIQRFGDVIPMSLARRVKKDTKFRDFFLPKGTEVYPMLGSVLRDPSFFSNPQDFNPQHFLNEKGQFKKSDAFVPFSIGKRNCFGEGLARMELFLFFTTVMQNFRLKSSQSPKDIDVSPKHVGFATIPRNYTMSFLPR
# UniProt P20813: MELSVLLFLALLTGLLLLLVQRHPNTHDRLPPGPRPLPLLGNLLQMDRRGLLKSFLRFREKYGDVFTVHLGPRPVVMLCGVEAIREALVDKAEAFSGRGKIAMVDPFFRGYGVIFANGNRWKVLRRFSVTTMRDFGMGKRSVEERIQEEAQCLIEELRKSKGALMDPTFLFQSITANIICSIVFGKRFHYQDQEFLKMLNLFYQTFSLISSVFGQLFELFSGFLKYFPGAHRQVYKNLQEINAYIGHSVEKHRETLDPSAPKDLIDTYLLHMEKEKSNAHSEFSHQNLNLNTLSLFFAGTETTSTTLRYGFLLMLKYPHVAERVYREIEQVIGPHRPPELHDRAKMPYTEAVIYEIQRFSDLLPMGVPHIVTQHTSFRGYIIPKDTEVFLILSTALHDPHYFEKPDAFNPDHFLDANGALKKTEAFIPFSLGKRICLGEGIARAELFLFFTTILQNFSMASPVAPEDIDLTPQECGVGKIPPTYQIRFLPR
# UniProt P04798: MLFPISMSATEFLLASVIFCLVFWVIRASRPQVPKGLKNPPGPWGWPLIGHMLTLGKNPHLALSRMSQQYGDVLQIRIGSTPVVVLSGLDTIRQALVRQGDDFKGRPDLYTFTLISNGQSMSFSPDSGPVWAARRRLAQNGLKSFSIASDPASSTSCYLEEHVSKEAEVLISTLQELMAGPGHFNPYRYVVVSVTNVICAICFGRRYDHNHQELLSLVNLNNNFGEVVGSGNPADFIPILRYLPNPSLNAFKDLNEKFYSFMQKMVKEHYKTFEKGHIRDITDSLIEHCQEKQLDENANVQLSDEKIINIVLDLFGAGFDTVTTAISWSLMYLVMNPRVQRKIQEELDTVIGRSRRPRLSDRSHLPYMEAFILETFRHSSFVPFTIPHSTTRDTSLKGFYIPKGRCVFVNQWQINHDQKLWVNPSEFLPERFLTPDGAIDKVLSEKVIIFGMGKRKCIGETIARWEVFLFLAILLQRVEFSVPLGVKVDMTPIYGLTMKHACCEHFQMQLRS
# UniProt P08684, whole entry, looked up: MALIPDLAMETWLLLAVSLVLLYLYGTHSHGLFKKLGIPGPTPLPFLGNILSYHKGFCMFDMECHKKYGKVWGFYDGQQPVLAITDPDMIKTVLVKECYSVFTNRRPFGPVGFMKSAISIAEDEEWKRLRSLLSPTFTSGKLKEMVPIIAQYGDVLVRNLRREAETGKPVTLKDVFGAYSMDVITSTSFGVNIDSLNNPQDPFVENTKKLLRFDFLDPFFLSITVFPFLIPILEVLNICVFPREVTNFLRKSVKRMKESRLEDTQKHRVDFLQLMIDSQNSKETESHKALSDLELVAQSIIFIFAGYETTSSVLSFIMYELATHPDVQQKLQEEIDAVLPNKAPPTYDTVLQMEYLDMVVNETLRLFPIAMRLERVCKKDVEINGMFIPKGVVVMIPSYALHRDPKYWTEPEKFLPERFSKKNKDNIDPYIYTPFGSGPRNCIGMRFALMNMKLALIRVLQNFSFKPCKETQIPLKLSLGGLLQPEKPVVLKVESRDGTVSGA
# UniProt P11511: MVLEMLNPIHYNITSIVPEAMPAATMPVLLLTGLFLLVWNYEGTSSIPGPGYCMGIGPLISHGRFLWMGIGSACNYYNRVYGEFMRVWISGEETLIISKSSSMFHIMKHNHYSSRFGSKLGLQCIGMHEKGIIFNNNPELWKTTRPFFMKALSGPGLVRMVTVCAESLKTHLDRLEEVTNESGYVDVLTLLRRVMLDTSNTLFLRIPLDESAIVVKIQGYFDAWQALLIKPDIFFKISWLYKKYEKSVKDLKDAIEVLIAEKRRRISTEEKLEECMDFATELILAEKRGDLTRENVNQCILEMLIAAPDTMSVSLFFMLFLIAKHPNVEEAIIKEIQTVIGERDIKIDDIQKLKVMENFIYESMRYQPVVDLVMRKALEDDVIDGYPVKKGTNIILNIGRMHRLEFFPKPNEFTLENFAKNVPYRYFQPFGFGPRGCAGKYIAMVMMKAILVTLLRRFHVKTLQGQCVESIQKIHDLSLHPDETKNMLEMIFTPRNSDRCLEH
# UniProt P33261, whole entry, looked up: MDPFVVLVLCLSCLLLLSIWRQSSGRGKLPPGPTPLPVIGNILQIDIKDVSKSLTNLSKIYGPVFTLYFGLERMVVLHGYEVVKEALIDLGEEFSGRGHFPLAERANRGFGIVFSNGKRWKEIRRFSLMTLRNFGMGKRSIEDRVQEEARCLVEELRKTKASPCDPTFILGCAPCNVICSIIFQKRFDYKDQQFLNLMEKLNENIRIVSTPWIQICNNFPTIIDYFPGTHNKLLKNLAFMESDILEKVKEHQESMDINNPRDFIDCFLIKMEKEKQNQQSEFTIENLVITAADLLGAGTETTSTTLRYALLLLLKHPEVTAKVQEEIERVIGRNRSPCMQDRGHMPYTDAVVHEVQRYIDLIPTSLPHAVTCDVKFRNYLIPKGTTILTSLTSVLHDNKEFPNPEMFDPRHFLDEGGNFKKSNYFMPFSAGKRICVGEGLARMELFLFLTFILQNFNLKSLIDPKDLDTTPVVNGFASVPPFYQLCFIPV
# The inconclusive results got no clear call from the source; some entries with a clear call stand among them for comparison. For some of these results: A potency beside an inconclusive call is a rough fit, not a confirmed value. Activity calls are given as the source filed them. Rule for the calls: active = hit-call score of the fitted dose curve at least 0.9, where 1 is the maximum; inconclusive = response in the unintended direction; inactive = score below 0.9.
# How the values were obtained:
# [1] = biological target: Retinoic acid receptor alpha (Homo sapiens) (UniProt P10276); assay: ATG_RARa_TRANS: Attagene TRANS-FACTORIAL HepG2 Assay for human Retinoic Acid Receptor alpha (RARa) (AID 2283005);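 for AC50: potency for increased reporter signal meaning RARa activation over DMSO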
# Method in brief: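 Reporter transcripts, measured by RT-PCR with fluorescent labeling and capillary electrophoresis after 24 h dosing, reflect activity of an exogenous human RARa–GAL4 fusion in transiently transfected HepG2. Fitted for increase relative to DMSO.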
# [2] = biological target: human Retinoic Acid Receptor gamma (RARg), RARG (gene 5916) (UniProt P13631); assay: ATG_RARg_TRANS: Attagene TRANS-FACTORIAL HepG2 Assay for human Retinoic Acid Receptor gamma (RARg) (AID 2283009);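 for AC50: AC50 is for reporter induction above DMSO meaning RARg activation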
# Method in brief: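 HepG2, RARg-GAL4 TRANS system, 24 h exposure; reporter mRNA by RT-PCR + CE fluorescence; increase over DMSO.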
# [3] = biological target: human RAR-related Orphan Receptor beta (RORb), RORB (gene 6096) (UniProt Q92753); assay: ATG_RORb_TRANS: Attagene TRANS-FACTORIAL HepG2 Assay for human RAR-related Orphan Receptor beta (RORb) (AID 2283010);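 for AC50: potency for increased reporter mRNA meaning activation of RORb-Gal4 chimera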
# Method in brief: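 In this TRANS-format test, human HepG2 cells express chimeric NR-Gal4 fusion proteins driving GAL4-UAS reporters. After 24 h dosing, reporter transcripts are measured by fluorescent RT-PCR/capillary electrophoresis, with DMSO as negative control.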
# [4] = biological target: human RAR-related Orphan Receptor gamma (RORg), RORC (gene 6097) (UniProt P51449); assay: ATG_RORg_TRANS: Attagene TRANS-FACTORIAL HepG2 Assay for human RAR-related Orphan Receptor gamma (RORg) (AID 2283011);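 for AC50: potency for induction of reporter transcripts above DMSO so activators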
# Method in brief: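 HepG2 cells transiently transfected with GAL4-UAS reporter units and chimeric RORg-Gal4 construct; after 24 h chemical exposure, reporter mRNA measured by RT-PCR with fluorescent capillary electrophoresis, gain of signal fitted against DMSO.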
# [5] = biological target: human Retinoid X Receptor beta (RXRb), RXRB (gene 6257) (UniProt P28702); assay: ATG_RXRb_TRANS: Attagene TRANS-FACTORIAL HepG2 Assay for human Retinoid X Receptor beta (RXRb) (AID 2283013)
# Method in brief: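 Multiplexed TRANS reporter assay in HepG2; 24 h dosing; reporter mRNA by RT-PCR/CE fluorescence; gain-of-signal relative to DMSO.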
# [6] = biological target: human Thyroid Receptor alpha (THRa1), THRA (gene 7067) (UniProt P10827); assay: ATG_THRa1_TRANS: Attagene TRANS-FACTORIAL HepG2 Assay for human Thyroid Receptor alpha (THRa1) (AID 2283014)
# Method in brief: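 HepG2 cells transiently transfected with chimeric NR-Gal4 and GAL4-UAS reporter units, dosed 24 h. Reporter mRNA quantified by RT-PCR, fluorescent labeling, HpaI digestion and capillary electrophoresis; gain-of-signal fit versus DMSO.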
# [7] = biological target: human Vitamin D Receptor (VDR), VDR (gene 7421) (UniProt P11473); assay: ATG_VDR_TRANS: Attagene TRANS-FACTORIAL HepG2 Assay for human Vitamin D Receptor (VDR) (AID 2283022)
# Method in brief: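 HepG2 cells were transiently transfected with GAL4-UAS reporter units and a chimeric VDR-Gal4 construct, then dosed for 24 hours. Reporter mRNA was quantified by RT-PCR, fluorescent labeling, HpaI digestion and capillary electrophoresis; gain of signal analysed vs DMSO.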
# [8] = biological target: human CYP2A6, CYP2A6 (gene 1548) (UniProt P11509); assay: NVS_ADME_hCYP2A6: NovaScreen (NVS) CYP450-related Enzyme Activity (ADME) Assay for human CYP2A6 (AID 2283099)
# Method in brief: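 Recombinant human CYP2A6 expressed in insect cells, cell-free; fluorogenic substrate turnover read by fluorescence intensity 0.5 h after dosing. Primary screen 10 uM in duplicate, then concentration-response up to 20 uM; acetonitrile as negative control.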
# [9] = biological target: human CYP2B6, CYP2B6 (gene 1555) (UniProt P20813); assay: NVS_ADME_hCYP2B6: NovaScreen (NVS) CYP450-related Enzyme Activity (ADME) Assay for human CYP2B6 (AID 2283101)
# Method in brief: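 Recombinant human CYP2B6 with fluorogenic substrate, read by fluorescence intensity 1 h after dosing. Primary screen in duplicate at 10 uM, actives followed in concentration series; signal loss relative to acetonitrile control.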
# [10] = biological target: human CYP1A1, CYP1A1 (gene 1543) (UniProt P04798); assay: NVS_ADME_hCYP1A1: NovaScreen (NVS) CYP450-related Enzyme Activity (ADME) Assay for human CYP1A1 (AID 2283100)
# Method in brief: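 Recombinant CYP1A1 with a fluorogenic substrate, cell-free, read 1 h after dosing; acetonitrile as negative control. Single-concentration screen at 10 uM in duplicate, then concentration-response up to 20 uM for chemicals meeting ~30% inhibition threshold.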
# [11] = biological target: Cytochrome P450 3A4 (Homo sapiens) (UniProt P08684); assay: NVS_ADME_hCYP3A4: NovaScreen (NVS) CYP450-related Enzyme Activity (ADME) Assay for human CYP3A4 (AID 2283110)
# Method in brief: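 Compounds were first screened in duplicate at 10 uM against recombinant CYP3A4 produced in insect cells, then actives were run in concentration series. Enzyme activity was measured by fluorescence after 0.33 hour, with acetonitrile as baseline.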
# [12] = biological target: human CYP19A1, CYP19A1 (gene 1588) (UniProt P11511); assay: NVS_ADME_hCYP19A1: NovaScreen (NVS) CYP450-related Enzyme Activity (ADME) Assay for human CYP19A1 (AID 2283098);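 note: potency for inhibitors seen as loss of fluorescent enzyme signal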
# Method in brief: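 Biochem, cell-free; recombinant enzyme + specific substrate; fluorescence intensity at 0.5 h post-dose; 10 uM duplicate primary, conc. series for actives; acetonitrile = negative control/baseline; positive and negative controls on every plate.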
# [13] = biological target: Cytochrome P450 2C19 (Homo sapiens) (UniProt P33261); assay: NVS_ADME_hCYP2C19: NovaScreen (NVS) CYP450-related Enzyme Activity (ADME) Assay for human CYP2C19 (AID 2283113);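 note: potency for inhibition seen as loss of fluorescent signal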
# Method in brief: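 Cell-free recombinant human CYP2C19 from insect cells, fluorescent substrate; activity read by fluorescence intensity 1 h after dosing. Primary screen in duplicate at 10 uM; actives retested in concentration series. Signal loss versus acetonitrile negative control.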
structure (smiles),measurement,setting,value
CCOP(=S)(Oc1cnc(C(C)(C)C)nc1)OC(C)C (centres undefined),outcome,[1],inactive
same,outcome,[2],inactive
same,outcome,[3],inactive
same,AC50,[4],inconclusive: 50 µM
same,outcome,[5],inactive
same,outcome,[6],inactive
CCc1ccccc1C,AC50,[1],inconclusive: 100 µM
same,AC50,[2],inconclusive: 3.93 µM
same,AC50,[3],inconclusive: 100 µM
same,outcome,[4],inactive
same,outcome,[5],inactive
same,outcome,[6],inactive
O=S1(=O)OC(c2cc(Br)c(O)c(Br)c2)(c2cc(Br)c(O)c(Br)c2)c2ccccc21,outcome,[1],inactive
same,outcome,[2],inactive
same,outcome,[3],inactive
same,AC50,[4],inconclusive: 34.7 µM
same,outcome,[6],inactive
same,outcome,[7],inactive
CC(C)c1cccc(C(C)C)c1O,outcome,[1],inactive
same,outcome,[2],inactive
same,outcome,[3],inactive
same,AC50,[4],inconclusive: 100 µM
same,AC50,[5],active: 50.6 µM
same,outcome,[6],inactive
same,outcome,[7],inactive
CCC(C)(C)c1ccc(O)c(C(C)(C)CC)c1,outcome,[1],inactive
same,AC50,[2],active: 27.4 µM
same,AC50,[3],active: 27.3 µM
same,AC50,[4],inconclusive: 33.4 µM
same,AC50,[5],active: 9.09 µM
same,AC50,[6],active: 45.8 µM
same,AC50,[7],active: 55 µM
same,AC50,[8],inconclusive: 10 µM
same,AC50,[9],inconclusive: 10 µM
CC(=O)C(F)(F)C(F)(F)F,AC50,[1],inconclusive: 253 µM
same,AC50,[2],inconclusive: 150 µM
same,AC50,[3],inconclusive: 150 µM
same,AC50,[4],inconclusive: 150 µM
same,outcome,[6],inactive
same,AC50,[7],inconclusive: 150 µM
CO/C=C(/C(=O)OC)c1ccccc1COc1cccc(C(F)(F)F)n1,AC50,[1],inconclusive: 100 µM
same,outcome,[2],inactive
same,AC50,[3],inconclusive: 7.27 µM
same,AC50,[4],inconclusive: 15.5 µM
same,outcome,[10],inactive
O=C(O)Cc1ccccc1,outcome,[1],inactive
same,AC50,[2],inconclusive: 23.4 µM
same,outcome,[3],inactive
same,AC50,[4],inconclusive: 0.0823 µM
same,AC50,[6],inconclusive: 100 µM
same,outcome,[7],inactive
CCCCC(CC)COP(=O)(Oc1ccccc1)Oc1ccccc1 (centres undefined),AC50,[1],inconclusive: 26.1 µM
same,AC50,[2],inconclusive: 1.6 µM
same,AC50,[3],inconclusive: 19.8 µM
same,AC50,[4],inconclusive: 19.8 µM
same,AC50,[6],inconclusive: 100 µM
O=c1ssc(Cl)c1Cl,AC50,[1],inconclusive: 4.12 µM
same,AC50,[2],inconclusive: 2.27 µM
same,outcome,[3],inactive
same,AC50,[4],inconclusive: 33.4 µM
same,AC50,[7],inconclusive: 0.00308 µM
O=C(O)C1(c2ccc3c(c2)OC[C@H](Cc2ccc(-c4ccccc4)cc2)[C@H]3O)CCCC1,outcome,[1],inactive
same,outcome,[2],inactive
same,AC50,[3],inconclusive: 2.26 µM
same,AC50,[4],inconclusive: 1.79 µM
same,outcome,[5],inactive
same,outcome,[7],inactive
CCN(CC)C(=O)SCc1ccc(Cl)cc1,AC50,[1],inconclusive: 1.08 µM
same,outcome,[2],inactive
same,AC50,[3],inconclusive: 90 µM
same,outcome,[4],inactive
same,AC50,[6],inconclusive: 50 µM
Oc1ccc2ccc3cccc4ccc1c2c34,AC50,[1],inconclusive: 33.4 µM
same,outcome,[2],inactive
same,AC50,[3],inconclusive: 33.4 µM
same,outcome,[4],inactive
same,AC50,[5],active: 43.3 µM
O=[N+]([O-])c1ccc(Nc2ccccc2)cc1,AC50,[1],inconclusive: 1.55 µM
same,AC50,[2],inconclusive: 1.06 µM
same,AC50,[3],inconclusive: 100 µM
same,AC50,[4],inconclusive: 100 µM
same,AC50,[5],active: 12.1 µM
Oc1ccc(-c2ccccc2)cc1,AC50,[1],inconclusive: 177 µM
same,outcome,[2],inactive
same,AC50,[3],inconclusive: 161 µM
same,AC50,[4],inconclusive: 176 µM
same,outcome,[6],inactive
CC(C)c1ccc(O)cc1,AC50,[1],inconclusive: 175 µM
same,AC50,[2],inconclusive: 100 µM
same,outcome,[3],inactive
same,AC50,[4],inconclusive: 100 µM
same,AC50,[6],inconclusive: 100 µM
COP(=S)(OC)Oc1ccc(S(=O)(=O)N(C)C)cc1,AC50,[1],inconclusive: 44.2 µM
same,AC50,[2],inconclusive: 1.81 µM
same,AC50,[3],inconclusive: 48.2 µM
same,AC50,[4],inconclusive: 27.4 µM
same,AC50,[5],inconclusive: 100 µM
same,outcome,[6],inactive
same,AC50,[11],inconclusive: 0.0406 µM
CCOC(=O)COc1cc(-c2nn(C)c(OC(F)F)c2Cl)c(F)cc1Cl,outcome,[1],inactive
same,outcome,[2],inactive
same,AC50,[3],inconclusive: 50 µM
same,outcome,[4],inactive
same,outcome,[6],inactive
same,AC50,[11],inconclusive: 2.64 µM
CCNc1nc(Cl)nc(NCC)n1,outcome,[1],inactive
same,outcome,[2],inactive
same,AC50,[3],inconclusive: 50 µM
same,AC50,[4],inconclusive: 50 µM
same,AC50,[6],inconclusive: 50 µM
same,outcome,[7],inactive
same,AC50,[12],inconclusive: 18.1 µM
same,outcome,[10],inactive
same,AC50,[13],inconclusive: 0.0274 µM
CC(C)(C)c1ccccc1OP(=O)(Oc1ccccc1)Oc1ccccc1,AC50,[1],inconclusive: 12 µM
same,AC50,[2],inconclusive: 5.29 µM
same,AC50,[3],inconclusive: 15.4 µM
same,AC50,[4],inconclusive: 100 µM
same,AC50,[6],inconclusive: 100 µM

# A different layout for part of the listing above:
structure (smiles)	measurement	setting	value
CCN(CC)C(=O)SCc1ccc(Cl)cc1	outcome	[4]	inactive
same	AC50	[6]	inconclusive: 50 µM
Oc1ccc2ccc3cccc4ccc1c2c34	AC50	[1]	inconclusive: 33.4 µM
same	outcome	[2]	inactive
same	AC50	[3]	inconclusive: 33.4 µM
same	outcome	[4]	inactive
same	AC50	[5]	active: 43.3 µM
O=[N+]([O-])c1ccc(Nc2ccccc2)cc1	AC50	[1]	inconclusive: 1.55 µM
same	AC50	[2]	inconclusive: 1.06 µM
same	AC50	[3]	inconclusive: 100 µM
same	AC50	[4]	inconclusive: 100 µM
same	AC50	[5]	active: 12.1 µM
Oc1ccc(-c2ccccc2)cc1	AC50	[1]	inconclusive: 177 µM
same	outcome	[2]	inactive
same	AC50	[3]	inconclusive: 161 µM
same	AC50	[4]	inconclusive: 176 µM
same	outcome	[6]	inactive
CC(C)c1ccc(O)cc1	AC50	[1]	inconclusive: 175 µM
same	AC50	[2]	inconclusive: 100 µM
same	outcome	[3]	inactive
same	AC50	[4]	inconclusive: 100 µM
same	AC50	[6]	inconclusive: 100 µM
COP(=S)(OC)Oc1ccc(S(=O)(=O)N(C)C)cc1	AC50	[1]	inconclusive: 44.2 µM
same	AC50	[2]	inconclusive: 1.81 µM
same	AC50	[3]	inconclusive: 48.2 µM
